In PubChem BioAssay AID1439 (NMMLSC, 2008):
Among all 220,000 compounds or so, about 770 (0.35%) were called active. Inconclusive results, whose numbers are uncertain, are shown with a selection of clear calls. No stated cut-off is given here; in the data, active means binding response below about 49% or above about 150%; inconclusive means no clear call, values can overlap the other calls; inactive means in between.

Sequences of proteins named here, by UniProt entry; tags and fusion partners are left off.
UniProt P09471, whole entry, looked up: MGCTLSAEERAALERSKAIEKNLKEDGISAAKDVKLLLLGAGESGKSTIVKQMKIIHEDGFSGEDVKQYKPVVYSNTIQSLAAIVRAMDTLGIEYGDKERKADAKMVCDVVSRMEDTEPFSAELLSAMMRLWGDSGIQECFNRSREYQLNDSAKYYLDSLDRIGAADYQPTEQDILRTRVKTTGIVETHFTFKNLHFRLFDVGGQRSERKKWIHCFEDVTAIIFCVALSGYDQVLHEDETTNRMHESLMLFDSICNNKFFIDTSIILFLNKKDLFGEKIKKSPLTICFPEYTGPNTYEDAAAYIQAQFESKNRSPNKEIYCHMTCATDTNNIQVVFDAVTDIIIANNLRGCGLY

target: Guanine nucleotide-binding protein G(o) subunit alpha (Homo sapiens) (UniProt P09471); test: RGS7-Galphao binding modulators, primary screen, biochemical, multiplexed bead flow cytometry (AID 1439); settings: at 10 µM, actives lie on both sides;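 further: fluorescent Galphao held in activated GDP-AlF4 state binding bead-coupled RGS7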

Compound	binding response (% of control)
Clc1cccc(Cl)c1CO/N=C/c1c(-c2ccccc2)nc2n1CCS2	inactive: 98.2%
CNC(=O)C1CC(=O)N(CCc2ccccc2)C(=Nc2ccc(OC)cc2)S1 (stereo not given)	inactive: 99.7%
Cc1ccc(NC(=O)N2CCSc3ccccc32)cc1	inconclusive: 117%
CSc1ccccc1C(=O)Nc1ccccc1C(=O)NC(C)C	inconclusive: 90.2%
CC(C)(C)N1CCC1CN (stereo not given)	inconclusive: 102%
Cc1ccccc1CSc1ncnc2ccccc12	inconclusive: 126%
CCc1ccccc1NC(=S)N(CCOC)C(C)c1ccco1 (stereo not given)	inconclusive: 92.9%
COC(=O)CCN(C(=O)c1ccc(N2CCCCC2)c([N+](=O)[O-])c1)c1ccccn1	inconclusive: 113%
Cc1cccc(NC(=O)c2cn(-c3ccccc3)nc2-c2ccccc2)c1	inactive: 102%
CCC1CCCCN1C(=O)CSc1nc(N)cc(N)n1 (stereo not given)	inactive: 96.5%
NC(=O)Cn1nnc(-c2ccc(CN3CCCCC3)cc2)n1	inactive: 92.8%
CCc1ccc(S(=O)(=O)NC(=S)Nc2ccccc2)cc1	inactive: 93.5%
O=C(O)COCC(=O)NCc1csc2ccccc12	inconclusive: 158%
C=CCn1c(=NC(=O)CC)n(C)c2ccccc21	inactive: 92.6%
COc1ccc2nc(SCC(=O)NCC(F)(F)F)[nH]c2c1	inactive: 95.3%
CSc1nc(-c2ccccc2)nn1S(=O)(=O)c1ccc(Cl)cc1	inactive: 84.4%
Cc1ccc(N=C2SC(C(=O)NCCc3ccccc3)CC(=O)N2C)cc1C (stereo not given)	inconclusive: 106%
O=C(O)COc1ccc(NC(=O)c2ccc(NC(=O)c3ccco3)cc2)cc1	inconclusive: 113%
Cc1cccc(N(C)C(=O)c2cc3c(=O)[nH]c4ccc(C)cc4c3s2)c1	inconclusive: 119%
C=CCSc1n[nH]c(-c2cccs2)n1	inconclusive: 77.1%
COc1ccc(CCNC(=O)c2cc3c(=O)n(C)c4ccccc4c3n2C)c(OC)c1	inconclusive: 647%
Cc1nn2cc(-c3ncc(C(F)(F)F)cc3Cl)cnc2c1Br	inconclusive: 182%
O=C(CNc1ccc(F)cc1F)NC(=O)NCc1ccco1	inconclusive: 109%

Compound	binding response (% of control)
CCN(Cc1ccncc1)Cc1c(O)ccc2cc(Br)ccc12	inactive: 101%
CCOC(=O)Cc1cc(C)[nH]c1C(=O)OCC	inconclusive: 81.3%
CCn1c(=O)c(=O)n(CC)c2cc(S(=O)(=O)Nc3ccc(C)cc3)ccc21	inconclusive: 107%
Cc1cccc(OCCCC(=O)Nc2nccs2)c1C	inconclusive: 101%
Cc1ccc(Cl)cc1NC(=O)COC(=O)Cn1cnc2c1c(=O)n(C)c(=O)n2C	inconclusive: 107%
COc1ccc(NC(=O)c2cc3ccc4c5ccccc5[nH]c4c3cc2O)cc1	inconclusive: 257%
Oc1ccc2ccccc2c1C=NCc1ccccc1	inconclusive: 264%
CN(c1ccc(OCC(=O)OCC(=O)NC2CCCC2)cc1)S(=O)(=O)c1ccc2ccccc2c1	inconclusive: 110%
COc1ccc(Nc2nnc(SCC(=O)NC(=O)Nc3ccc4c(c3)OCCO4)s2)cc1	inconclusive: 73.2%
COC(=O)c1c(N2C(=O)[C@H]3[C@@H](C2=O)[C@]2(C(=O)Nc4ccc(C)cc42)N2CCC[C@@H]32)sc(C)c1C	inactive: 103%
COc1ccccc1NS(=O)(=O)c1cc(NC(=O)c2ccc3c(c2)OCCO3)ccc1C	inactive: 91.1%
CN(C(=O)Cn1nnc(-c2cccnc2)n1)C1CCCCC1	inconclusive: 96.2%
O=C(O)/C=C/C(=O)Nc1ccc(Cc2ccc(NC(=O)/C=C/C(=O)O)cc2)cc1	inconclusive: 101%
Cc1ccc(C(C(=O)NC2CCCC2)N(Cc2ccc3c(c2)OCO3)C(=O)c2snc(C(N)=O)c2N)cc1 (stereo not given)	inconclusive: 109%
Cc1nc(NC(=O)c2ccc(OCC(C)C)cc2)sc1Cc1ccc2c(c1)OCO2	inconclusive: 85.3%
Cc1cccc(NC(=O)N2CCN(Cc3ccc4c(c3)OCO4)CC2)c1C	inconclusive: 87%
COc1cccc(CSc2nc3ccncc3[nH]2)c1	inconclusive: 248%
C/C=C/C(=O)OCC(=O)Nc1cc(OC)c([N+](=O)[O-])cc1C	inconclusive: 56.3%
Cc1ccc2nc(-c3ccc(-c4ccccn4)s3)cn2c1	inconclusive: 100%
CC(CC(=O)O)n1nnc2ccccc21 (stereo not given)	inconclusive: 41.8%
Nc1ncnc(Nc2ccc(S(N)(=O)=O)cc2)n1	inconclusive: 26.9%
O=C(C1=C[C@@H](C2CC2)C[C@@H](OCCCCO)O1)N1CCN(Cc2ccc3c(c2)OCO3)CC1	inactive: 107%

Given field by field: part of the list above.
Cc1cccc(OCCCC(=O)Nc2nccs2)c1C
  binding response (% of control): inconclusive: 101%
COC(=O)c1c(N2C(=O)[C@H]3[C@@H](C2=O)[C@]2(C(=O)Nc4ccc(C)cc42)N2CCC[C@@H]32)sc(C)c1C
  binding response (% of control): inactive: 103%
